Source: publication PMC5346138, “High-affinity RNA binding by a hyperthermophilic single-stranded DNA-binding protein”
For at least one entry, the source does not settle the construct or the ends of the probe. At least one verdict rests on a figure or table, not on a statement of the authors. Protein sequences can lack the tags named with them.

Target: T1, SsoSSB (single-stranded DNA-binding protein) (Sulfolobus solfataricus) (UniProt Q97W73)
T1 sequence (looked up, limits assumed): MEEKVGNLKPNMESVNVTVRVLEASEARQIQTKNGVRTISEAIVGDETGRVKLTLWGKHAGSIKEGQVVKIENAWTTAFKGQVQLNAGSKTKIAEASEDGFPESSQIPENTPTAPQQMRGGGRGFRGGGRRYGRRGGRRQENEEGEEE
Assay: ITC
Settings: 50 C, named only in Fig. 1 legend, ITC: 20 mM MES pH 6.5, 100 mM K-glutamate, 1 mM MgCl2, 50 C, recombinant protein

Sequence	binding result (may be the same titration as the 21T row, single-stranded DNA)	binding result (may be the same titration as the 21U row)
AAAAAAAAAAAAAAAAAAAAA [21 nt poly-A DNA]	binds	
AAAAAAAAAAAAAAAAAAAAA [R21A (21 nt poly-rA)]		binds
